Library screening results

A: 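Whole-cell assay for inhibitors of Mycobacterium tuberculosis growth, labelled Cornell in the record; the read-out is not stated. The concentration is filed as 10 mM, unlikely as a test dose, so the dose is not known. Higher means stronger inhibition (inferred from two other growth screens of the library). Of about 53,000 compounds tested this way, about 900 (1.7%) reached 50% or more in at least one test.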
B: 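Assay on Mycobacterium tuberculosis, filed only as a heat shock assay from Cornell; the read-out is not stated. The concentration is filed as 10 mM, unlikely as a test dose, so the dose is not known. The record gives no direction; compounds that gave an IC50 in retests scored well above the rest, so higher reads as stronger inhibition. About 69,000 compounds were tested under these conditions; 1.4% (about 930) showed 50% or more at least once.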

The filed quantity is “Percent Effect” (%).
The controls that fix the scale are not given in the record; negative values are as filed.
Compounds were drawn at random from those tested, without regard to their results.
A dash means the value is not listed here; it may have been measured.

| SMILES | A | B |
|---|---|---|
| `Cc1cc(C)nc(C2CCN(C3CCOCC3)C2)n1` (stereo not given) | 13.02% | -13.99% |
| `CC(=O)NC1CCN(c2nc(C)nc3c2c(C)nn3C)C1` (stereo not given) | -18.24% | 30.59% |
| `Cn1cc(CCNC(=O)N2CCCC(c3nncn3C)C2)cn1` (stereo not given) | - | 9.982% |
| `CC(C)c1nnc2n1CCN(C(=O)c1cc(Cl)c[nH]1)C2` | - | 3.413% |
| `O=C(c1ccc2sccc2c1)N1CCC(C(=O)O)(n2cccn2)CC1` | 40.77% | 10.03% |
| `O=C(O)C(F)(F)F.c1csc(CN2CCc3nnc(COc4cncnc4)n3CC2)c1` | -37.23% | -24.48% |
| `Cc1csc(NC(=O)NCCCN2CCC(C(N)=O)CC2)n1` | -24.58% | -27.62% |
| `CCCNC(=O)NC(=O)CN1C=Nc2ccccc2S1(=O)=O` | -21.7% | 6.878% |
| `CC(C)n1cnc2c1C(C(=O)N(C)C)N(Cc1ccccc1)CC2.O=C(O)C(F)(F)F` (stereo not given) | 16.06% | -33.53% |
| `Cc1nn(C)c2nc(-c3ccccn3)nc(NCCCOC(C)C)c12` | 64.07% | 98.39% |
| `Cc1cccc2c1nc1n2[C@@H](CNC(=O)c2ccccn2)COC1` | -6.184% | -24.84% |
| `O=c1c(Cc2ccccc2)c(O)ccn1Cc1cccs1` | 8.859% | -12.6% |
| `COC(=O)C(NC(=O)c1ccc(NC2CC2)nc1)c1ccccc1` (stereo not given) | 107% | 51.61% |
| `CCc1cc(CNC(=O)N2Cc3ccccc3N(C)CC2C)[nH]n1` (stereo not given) | -9.286% | 6.551% |
| `O=C(O)C(F)(F)F.O=S(=O)(C1CC1)N1CCC2(CCN(Cc3nccs3)CC2)CC1` | 26.7% | -13.7% |
| `O=S(=O)(c1ccc(F)cc1)N1CCCCC1c1cc[nH]n1` (stereo not given) | - | -13.54% |
| `c1cc(-c2cn3nccc3nc2C2CCCCC2)nc(N2CCCC2)n1` | 14.82% | -7.306% |
| `O=C(c1cc(C2CC2)[nH]n1)N1CCN(Cc2ccncc2)CC1` | 8.467% | -6.174% |
| `COc1ccc(CC(=O)N2CCCC2Cn2cc(C)cn2)c(OC)c1` (stereo not given) | - | 2.56% |
| `Cc1ncc(-c2ccncc2)c(C2CCN(C(=O)c3ccno3)CC2)n1` | 0.9699% | -0.3082% |
| `c1ccc2c(Cc3nnc([C@H]4CCNC4)o3)c[nH]c2c1` | -8.687% | 1.283% |
| `O=C(O)C(F)(F)F.[H][C@@]12C[C@@H](c3nc(C)no3)CN(C(C)C)[C@]1([H])CCO2` | 14.51% | -11.53% |
| `O=C(C1CC1)N1CCC2(CCN(Cc3cccc(F)c3)CC2)CC1.O=C(O)C(F)(F)F` | 16.31% | -34.09% |
| `CNc1cncc(C2CCCN2C(=O)c2ccc3oc(=O)n(C)c3c2)n1` (stereo not given) | 4.228% | -27.99% |
| `Cl.O=C(c1ccoc1)N1CCC(NCc2ccccc2Cl)CC1` | -19.62% | 2.871% |
| `CN(Cc1ccco1)Cc1ccccc1CNC(=O)c1ccncc1` | - | -0.279% |
| `Cc1cccc(CN2CCc3nnc(CO)n3CC2)n1.O=C(O)C(F)(F)F` | 16.08% | -11.61% |
| `Cc1cnc2c(S(=O)(=O)NCC3CCOC3)cccc2c1` (stereo not given) | -20.07% | -1.613% |
| `[H][C@@]12COC[C@]1(c1nnc(C)o1)CN(Cc1cc(C)on1)C2` | -11.99% | -5.819% |
| `CC(C)c1nnc(NC(=O)N(C)Cc2ccncc2)s1` | -15.27% | 11.16% |
| `CC(C)(NCC(=O)N1CCCC(C(N)=O)C1)c1ccc(Cl)cc1` (stereo not given) | - | -29.92% |
| `O=C(NC1CC1)N1CCOC2(CCCN(c3cccc(F)c3)C2)C1` (stereo not given) | 4.145% | 12.16% |
| `COCCn1ccnc1C1CCCN(c2ncnc3c2CCC3)C1` (stereo not given) | 15.81% | -43.94% |
| `Cc1nn(C)c(Cl)c1C1CCCN1C(=O)c1ccc2c(c1)COC2` (stereo not given) | 16.52% | -2.623% |
| `Cc1cnn(C2(C(=O)O)CCN(c3ccncc3F)CC2)c1` | - | -25.55% |
| `[H][C@]12CC[C@]([H])(CN(CC(=O)N(C)C)C1)N(C(=O)CCn1nccc1C)C2` | - | 14.73% |
| `CC(C)=CCN(C)C1CCCN(Cc2noc(C)n2)C1` (stereo not given) | 3.215% | -8.561% |
| `CN(C)c1ccc(CN(CC2CCCO2)C(=O)c2csnn2)cc1` (stereo not given) | - | 21.68% |
| `[H][C@@]12OCCN(C(=O)c3nn(C)c4ccccc34)[C@@]1([H])CC[C@H]2OCC` | 3.764% | -5.926% |
| `C[S+]([O-])c1nncn1CC(=O)c1ccc(Cl)c(Cl)c1` (stereo not given) | 51.67% | 11.75% |
| `O=C(c1ccccn1)N1CCC2(CNS(=O)(=O)c3cnccc3O2)C1` (stereo not given) | - | -14.78% |
| `Cc1cc(O)nc(C2CCCN(Cc3ccncc3)C2)n1` (stereo not given) | -1.013% | -11.3% |

4 of the entries, repeated:

With CCCNC(=O)NC(=O)CN1C=Nc2ccccc2S1(=O)=O the screen gave A: -21.7%; B: 6.878%.
With COC(=O)C(NC(=O)c1ccc(NC2CC2)nc1)c1ccccc1 (stereo not given) the screen gave A: 107%; B: 51.61%.
With O=C(c1ccccn1)N1CCC2(CNS(=O)(=O)c3cnccc3O2)C1 (stereo not given) the screen gave B: -14.78%.
With Cc1cnn(C2(C(=O)O)CCN(c3ccncc3F)CC2)c1 the screen gave B: -25.55%.

Source: ChEMBL document CHEMBL3988442, “University of Dundee, Small-Polar-MMV Screening Library” (2021).